No constants are given. Whether binding was seen depends on the method and setting. Some results given as binding are weak or reduced against the parent protein; the word gives no strength.
Experiments:
[1] = biological target: human PD-1 ECD (Acro Biosystems cat. no. PD1-H52219) (human) (UniProt Q15116); assay: SPR
[2] = biological target: cynomolgus PD-1 ECD (Acro Biosystems cat. no. PD1-05223) (cynomolgus) (UniProt B0LAJ3); assay: SPR
[3] = biological target: human PD-1 expressed on CHO-S cells (human) (UniProt Q15116); assay: flow cytometry PD-L1 blocking assay on CHO-S cells transiently expressing human PD-1; antibody 10 µg/ml final; blocked ligand R-PE PD-L1-Fc (16.4 nM final)

By UniProt entry, the sequences of proteins in these tests, tags left out. Where a name states a change or a piece, a line headed by the entry shows the natural chain unless it says otherwise. Residues count along the entry.
UniProt Q15116: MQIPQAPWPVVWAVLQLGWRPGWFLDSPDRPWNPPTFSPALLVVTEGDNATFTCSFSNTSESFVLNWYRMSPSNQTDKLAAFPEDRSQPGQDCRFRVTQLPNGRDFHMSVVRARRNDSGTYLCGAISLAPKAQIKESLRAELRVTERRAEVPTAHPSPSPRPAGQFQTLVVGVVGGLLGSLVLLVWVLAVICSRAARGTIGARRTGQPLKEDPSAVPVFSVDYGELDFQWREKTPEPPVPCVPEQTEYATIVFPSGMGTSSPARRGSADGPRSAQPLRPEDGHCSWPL
human PD-1 expressed on CHO-S cells: residues 25-288 of Q15116
human PD-1 ECD (Acro Biosystems cat. no. PD1-H52219): residues 25-170 of Q15116

| binding [1] | binding [2] | binding [3] | Binder |
| --- | --- | --- | --- |
| binds | binds | binds | antibody 18049 (antibody, V domains shown) VH: QVQLVESGGGVVQPGRSLRLSCAASGFTFSNYGMHWVRQAPGKGLEWVAVIWYDGSDKYYADSVKGRFTISRDNSKNTLYLQMNSLRAEDTAVYYCAGGGNYYGDFWGQGTLVTVSS VL: EIVMTQSPSSLSASVGDRVTITCRASQGIRNDLGWYQQKPGKAPKRLIYVASNLQSGVPSRFSGSGSGTEFTLTISSLQPEDFATYYCLQYNSYPWTFGQGTKVEIKR |
| binds | binds | binds | antibody 18113 (antibody, V domains shown) VH: QVQLVESGGGLVKPGGSLRLSCAASGFTFSDYYMSWIRQAPGKGLEWVSYISSSGSTIYYADSAKGRFTISRDNAKNSLYLQMNSLRAEDTAVYYCARDTNWAFDYWGQGTLVTVSS VL: DIQLTQSPDSLAVSLGERATINCKSSQSVFYSANNKNYLAWYQQKPGQPPKLLIYWTSTRESGVPDRFRGSGSGTDFTLTISSLQAEDVAVYYCQQFYSTPRTFGQGTKVEIKR |
| binds | binds | binds | antibody 18098 (antibody, V domains shown) VH: QVQLQESGGGLVRPGGSLRLSCAASGFTFSSFAMNWVRQAPGKGLVWVSTITGGGTTSYYADSVKGRFTISRDNSKSTLFLQMNSLRAEDTAVYYCAKWGSWSAGAFDIWGQGTTVTVSS VL: DIQLTQSPSSVSASVGDRVTITCRASQGISSWLAWYQQKPGKAPKLLIYAASSLQSGVPSRFSGSGSGTDFTLTISSLQPEDFATYYCQQANSFPWTFGQGTKVEIKR |
| binds | binds | binds | antibody 18413 (antibody, V domains shown) VH: EVQLVESGGGLVQPGGSLRLSCAASGFTFSSFVMSWVRQAPGKGLEWLSTISGGGGSTYYADSVKGRFTISRDNSKNTLYLQMNSLRAEDTAVYYCAKDWDLYYFDYWGQGTLVTVSS VL: DIQLTQSPSSVPASVGDRVTITCRASQGISNWLAWYQQKPGKAPKLLIYAASSLQSGVPSRFSGSGSGTDFTLTISSLQPEDFATYYCQQANSFPLTFGGGTKVEIKR |
| binds | binds | binds | antibody 18325 (antibody, V domains shown) VH: QVQLQQSGGGLVQPGGSLRLSCAASGFTFSSHVMNWVRQAPGKGLEWVATISGSGVDTYYADSVKGRFTISRGNSKNMLYLQMNSLRAEDTAVYYCAKWGSWSAGAFDIWGQGTMVTVSS VL: EIVLTQSPSSVSASVGDRVTITCRASQGISSWLAWYQQKPGKAPKLLIYAASSLQSGVPSRFSGSGSGTDFTLTISSLQPEDFATYYCQQANSFPWTFGQGTKVEIKR |
